These are yes or no findings as the source states them, for the method shown. Binding seen in cells or lysates may run through a third protein. Some entries that bind do so weakly or less than the wild type. Where a sequence is shown, tags or fusion partners need not be part of it.

The chains behind the UniProt entries cited, without tags or fusion partners.
UniProt Q8IXI2: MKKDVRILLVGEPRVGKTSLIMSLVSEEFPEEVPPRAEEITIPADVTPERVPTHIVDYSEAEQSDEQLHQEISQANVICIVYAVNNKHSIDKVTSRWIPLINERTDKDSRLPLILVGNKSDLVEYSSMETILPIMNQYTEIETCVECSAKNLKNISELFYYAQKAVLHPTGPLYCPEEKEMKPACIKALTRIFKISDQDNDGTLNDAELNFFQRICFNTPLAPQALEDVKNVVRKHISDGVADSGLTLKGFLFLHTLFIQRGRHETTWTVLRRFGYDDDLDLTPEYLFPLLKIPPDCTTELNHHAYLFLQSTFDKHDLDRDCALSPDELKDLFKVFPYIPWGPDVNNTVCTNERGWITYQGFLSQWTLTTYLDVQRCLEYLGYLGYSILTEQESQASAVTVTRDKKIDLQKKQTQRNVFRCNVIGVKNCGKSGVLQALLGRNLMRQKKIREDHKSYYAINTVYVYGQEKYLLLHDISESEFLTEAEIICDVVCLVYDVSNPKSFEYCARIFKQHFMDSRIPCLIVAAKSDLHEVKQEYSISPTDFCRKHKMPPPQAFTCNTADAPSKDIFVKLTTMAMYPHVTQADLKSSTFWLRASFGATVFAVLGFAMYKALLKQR

For experiment [1], the target named is T1, mycPex19 (mouse Pex19 cloned into pRK5-myc vector) (mouse) (UniProt Q8VCI5).
T1 sequence: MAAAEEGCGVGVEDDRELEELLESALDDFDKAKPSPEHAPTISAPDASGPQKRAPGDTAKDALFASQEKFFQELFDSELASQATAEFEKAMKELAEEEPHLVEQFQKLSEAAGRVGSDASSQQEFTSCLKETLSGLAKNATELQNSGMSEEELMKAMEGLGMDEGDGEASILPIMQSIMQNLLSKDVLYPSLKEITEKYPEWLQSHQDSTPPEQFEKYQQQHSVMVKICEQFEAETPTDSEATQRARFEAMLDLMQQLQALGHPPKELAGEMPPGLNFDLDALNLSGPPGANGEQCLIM
The experiment in a line: co-IP.

In experiment [2] the target is GFPMiro1 (full-length GFP-tagged Miro1) (UniProt Q8IXI2). The experiment is described as follows: co-IP.

For the molecule “full-length Miro1 (mycMiro1) (from UniProt Q8IXI2 1-618)”, the binding result in experiment [1] is listed as “binds”.

B1: mycPex19 (mouse Pex19 cloned into pRK5-myc vector) (protein, UniProt Q8VCI5-1 1-299)
chain: MAAAEEGCGVGVEDDRELEELLESALDDFDKAKPSPEHAPTISAPDASGPQKRAPGDTAKDALFASQEKFFQELFDSELASQATAEFEKAMKELAEEEPHLVEQFQKLSEAAGRVGSDASSQQEFTSCLKETLSGLAKNATELQNSGMSEEELMKAMEGLGMDEGDGEASILPIMQSIMQNLLSKDVLYPSLKEITEKYPEWLQSHQDSTPPEQFEKYQQQHSVMVKICEQFEAETPTDSEATQRARFEAMLDLMQQLQALGHPPKELAGEMPPGLNFDLDALNLSGPPGANGEQCLIM
For the molecule B1, the binding result in experiment [2] is given as “binds”.
